Assay results reported in publication PMC7862700.
This is a selection; strong and weak results do not stand in their true shares. At the low end of the ranking, values are background and their order means little.

Chains of the proteins cited; added tags and fusions are not shown. Lines headed by an entry give the natural chain unless they say otherwise; changes in a name come on top.
UniProt Q9Y603: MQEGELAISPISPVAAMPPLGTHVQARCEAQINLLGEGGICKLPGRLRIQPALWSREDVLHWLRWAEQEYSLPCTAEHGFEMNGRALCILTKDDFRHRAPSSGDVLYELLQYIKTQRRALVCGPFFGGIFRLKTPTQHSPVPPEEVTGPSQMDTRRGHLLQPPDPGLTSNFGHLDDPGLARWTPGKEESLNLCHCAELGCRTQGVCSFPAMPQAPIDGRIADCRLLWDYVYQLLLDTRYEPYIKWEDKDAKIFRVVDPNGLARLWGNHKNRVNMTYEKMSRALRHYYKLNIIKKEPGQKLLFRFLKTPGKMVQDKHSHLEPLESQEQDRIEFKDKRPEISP

What follows are sequences tested against ETV7 (UniProt Q9Y603) (assay: DAPPL (digital affinity profiling via proximity ligation, sequencing)). Conditions: 10 mM Tris-HCl pH 7.5, 50 mM NaCl, 1 mM DTT, 4% glycerol, room temperature, 30 min; GST-TFs on glutathione beads, 16-mer random dsDNA library, 0.1% …; high values mean tight binding; double strand, one strand shown; scale: fold enrichment (6-mer frequency, TF over GST control).

Sequence	binding signal
GTCCTG	1.26
CCTTAA	1.21
CTGTGC	0.98
GCAACA	0.988
GATAAA	0.938
CGCAAC	0.89
CTGGTA	1.4
CTTAAG	1.04
GAATTG	1.22
GTTCAC	1.29
TAGAAC	0.923
AGATTT	1.16
CGAATG	1.08
CCGCTC	1.42
ATGCAG	0.97
CCAATT	1.21
TAGAAA	1.12
AGCAAC	1.1
CGCCCA	0.843
TATTAG	1.03

Sequence	binding signal
AAACTG	1.13
TTTAGA	1.05
GGCTCG	0.949
TCGTCC	1.08
AGATTA	0.987
AGTACC	0.943
GGAACT	1.56
AACGCA	0.953
CGGTAT	0.97
AAACAC	1.34
CACCAA	0.975
GCCCCA	0.934
AGTCTC	0.835
GTGCCC	1.01
GCAATC	0.913
TCTGTA	1.03
AATCAG	1.12
GCTAGG	0.976
AATTAA	1.2
